Measurements from doi:10.1101/2025.08.12.669905.
Like-named read-outs stand apart in the source and are kept apart here. These are yes or no findings as the source states them, for the method shown. Binding seen in cells or lysates may run through a third protein. Some results given as binding are weak or reduced against the parent protein; the word gives no strength. For some assays here: Where a sequence is shown, tags or fusion partners need not be part of it. One block for each molecule: values may come before it.

Amino acid sequences for entries named in this document (tags omitted).
UniProt Q15648: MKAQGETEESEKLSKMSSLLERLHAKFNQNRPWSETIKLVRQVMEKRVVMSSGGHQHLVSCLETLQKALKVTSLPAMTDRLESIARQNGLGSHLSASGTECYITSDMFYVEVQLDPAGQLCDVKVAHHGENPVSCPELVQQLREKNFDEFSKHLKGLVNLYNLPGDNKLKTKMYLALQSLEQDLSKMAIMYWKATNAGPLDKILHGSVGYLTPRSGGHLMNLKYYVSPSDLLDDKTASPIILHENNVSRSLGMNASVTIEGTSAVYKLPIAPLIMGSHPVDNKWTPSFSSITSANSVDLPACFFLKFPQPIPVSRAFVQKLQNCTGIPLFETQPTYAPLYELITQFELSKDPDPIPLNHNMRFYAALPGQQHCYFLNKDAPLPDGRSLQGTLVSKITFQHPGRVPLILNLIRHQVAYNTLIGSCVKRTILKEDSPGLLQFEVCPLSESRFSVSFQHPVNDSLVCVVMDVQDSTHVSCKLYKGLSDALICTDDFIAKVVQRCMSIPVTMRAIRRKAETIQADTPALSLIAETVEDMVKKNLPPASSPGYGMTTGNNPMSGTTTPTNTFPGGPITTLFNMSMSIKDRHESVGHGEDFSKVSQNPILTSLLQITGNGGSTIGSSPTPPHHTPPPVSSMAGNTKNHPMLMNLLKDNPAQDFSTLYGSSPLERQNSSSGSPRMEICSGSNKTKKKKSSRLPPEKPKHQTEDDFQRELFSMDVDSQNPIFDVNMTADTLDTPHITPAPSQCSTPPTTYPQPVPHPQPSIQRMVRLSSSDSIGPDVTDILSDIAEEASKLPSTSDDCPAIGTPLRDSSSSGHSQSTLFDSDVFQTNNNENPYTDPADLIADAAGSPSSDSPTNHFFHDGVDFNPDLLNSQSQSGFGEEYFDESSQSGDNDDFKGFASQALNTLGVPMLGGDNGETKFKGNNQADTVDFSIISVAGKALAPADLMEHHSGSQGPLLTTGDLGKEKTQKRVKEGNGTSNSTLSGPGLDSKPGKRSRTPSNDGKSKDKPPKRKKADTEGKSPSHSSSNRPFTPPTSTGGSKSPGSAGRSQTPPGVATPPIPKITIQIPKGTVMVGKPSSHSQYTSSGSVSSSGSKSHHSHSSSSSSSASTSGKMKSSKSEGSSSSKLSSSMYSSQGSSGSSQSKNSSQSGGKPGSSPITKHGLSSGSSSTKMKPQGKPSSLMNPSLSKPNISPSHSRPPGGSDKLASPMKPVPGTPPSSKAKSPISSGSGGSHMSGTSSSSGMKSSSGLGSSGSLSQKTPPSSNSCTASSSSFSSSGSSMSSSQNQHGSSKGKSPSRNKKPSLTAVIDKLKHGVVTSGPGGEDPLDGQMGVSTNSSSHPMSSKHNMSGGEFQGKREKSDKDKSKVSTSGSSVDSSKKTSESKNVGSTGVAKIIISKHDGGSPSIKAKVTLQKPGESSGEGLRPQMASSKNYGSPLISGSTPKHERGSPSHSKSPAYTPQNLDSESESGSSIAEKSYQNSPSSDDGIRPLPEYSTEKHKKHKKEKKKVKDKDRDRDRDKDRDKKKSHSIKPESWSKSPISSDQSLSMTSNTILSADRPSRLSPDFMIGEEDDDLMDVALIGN
UniProt P25490: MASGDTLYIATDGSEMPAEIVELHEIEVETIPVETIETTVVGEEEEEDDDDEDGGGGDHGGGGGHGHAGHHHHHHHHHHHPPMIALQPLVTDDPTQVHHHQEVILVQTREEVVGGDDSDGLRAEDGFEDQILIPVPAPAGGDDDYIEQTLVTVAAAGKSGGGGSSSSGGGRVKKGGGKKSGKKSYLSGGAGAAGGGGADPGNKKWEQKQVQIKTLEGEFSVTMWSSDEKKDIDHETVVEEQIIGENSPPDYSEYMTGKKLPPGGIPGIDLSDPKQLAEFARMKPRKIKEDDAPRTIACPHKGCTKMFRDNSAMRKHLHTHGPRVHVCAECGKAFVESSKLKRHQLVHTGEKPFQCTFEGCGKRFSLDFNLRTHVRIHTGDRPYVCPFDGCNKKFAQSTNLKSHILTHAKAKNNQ

How the values were obtained:
Assay in all cases: co-IP
[1] = target: T1, Flag-MED16, full length (human) (UniProt Q9Y2X0)
T1 sequence: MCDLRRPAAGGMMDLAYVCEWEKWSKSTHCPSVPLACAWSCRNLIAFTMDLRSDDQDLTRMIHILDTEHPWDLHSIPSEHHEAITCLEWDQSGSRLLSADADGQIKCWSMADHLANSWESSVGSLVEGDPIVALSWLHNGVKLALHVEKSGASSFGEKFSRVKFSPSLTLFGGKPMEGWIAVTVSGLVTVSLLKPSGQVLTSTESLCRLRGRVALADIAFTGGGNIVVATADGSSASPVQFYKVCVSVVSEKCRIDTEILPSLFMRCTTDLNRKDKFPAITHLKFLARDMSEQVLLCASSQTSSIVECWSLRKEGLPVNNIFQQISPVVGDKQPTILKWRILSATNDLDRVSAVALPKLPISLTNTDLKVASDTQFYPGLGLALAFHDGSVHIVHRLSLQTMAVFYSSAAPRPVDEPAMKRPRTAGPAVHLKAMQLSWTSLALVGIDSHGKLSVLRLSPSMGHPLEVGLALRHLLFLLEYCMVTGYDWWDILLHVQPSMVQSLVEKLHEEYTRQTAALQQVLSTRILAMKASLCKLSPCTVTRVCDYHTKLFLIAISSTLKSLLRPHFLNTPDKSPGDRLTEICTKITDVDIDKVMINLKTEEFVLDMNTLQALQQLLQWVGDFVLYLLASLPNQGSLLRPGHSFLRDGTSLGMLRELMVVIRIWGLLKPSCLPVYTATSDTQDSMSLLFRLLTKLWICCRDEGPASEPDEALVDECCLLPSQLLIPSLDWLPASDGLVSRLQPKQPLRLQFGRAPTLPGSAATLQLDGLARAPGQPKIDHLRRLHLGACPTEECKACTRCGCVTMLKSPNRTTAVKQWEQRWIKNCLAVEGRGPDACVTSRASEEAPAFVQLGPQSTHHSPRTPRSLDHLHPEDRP

[2] = target: T2, Mediator subunit MED16 (endogenous) (human (endogenous in 293T and HeLa)) (UniProt Q9Y2X0)
T2 sequence: T1 sequence

[3] = target: T2, Mediator subunit MED16 (endogenous) (human (endogenous in 293T and HeLa)); remark: listed apart in the source
[4] = target: T1, Flag-MED16, full length (human); remark: listed apart in the source
[5] = target: T3, Flag-UBP1, full length (human) (UniProt Q9NZI7)
T3 sequence: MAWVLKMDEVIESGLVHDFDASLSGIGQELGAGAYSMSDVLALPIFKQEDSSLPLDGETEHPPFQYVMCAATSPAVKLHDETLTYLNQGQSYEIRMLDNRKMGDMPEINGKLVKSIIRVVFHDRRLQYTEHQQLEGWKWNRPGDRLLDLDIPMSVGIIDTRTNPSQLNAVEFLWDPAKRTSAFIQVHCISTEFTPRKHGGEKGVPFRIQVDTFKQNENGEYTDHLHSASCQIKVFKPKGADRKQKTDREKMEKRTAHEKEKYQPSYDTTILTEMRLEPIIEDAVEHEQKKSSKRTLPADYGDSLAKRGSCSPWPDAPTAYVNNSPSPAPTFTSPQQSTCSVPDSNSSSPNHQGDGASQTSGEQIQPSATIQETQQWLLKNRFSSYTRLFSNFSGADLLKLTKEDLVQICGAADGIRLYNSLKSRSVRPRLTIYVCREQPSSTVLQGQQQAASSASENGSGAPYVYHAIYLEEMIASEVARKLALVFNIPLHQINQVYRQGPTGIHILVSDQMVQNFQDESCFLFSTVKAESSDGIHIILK

[6] = target: T2, Mediator subunit MED16 (endogenous) (human (endogenous in 293T and HeLa)); remark: listed apart in the source

Molecule: MED1 (endogenous) (from UniProt Q15648 1-1581)
binding [1]: binds
binding [2]: binds

Molecule: YY1 (endogenous) (from UniProt P25490 1-414)
binding [3]: binds
binding [2]: binds

B2: MED23 (endogenous) (protein, UniProt Q9ULK4 1-1368)
chain: METQLQSIFEEVVKTEVIEEAFPGMFMDTPEDEKTKLISCLGAFRQFWGGLSQESHEQCIQWIVKFIHGQHSPKRISFLYDCLAMAVETGLLPPRLVCESLINSDTLEWERTQLWALTFKLVRKIIGGVDYKGVRDLLKVILEKILTIPNTVSSAVVQQLLAAREVIAYILERNACLLPAYFAVTEIRKLYPEGKLPHWLLGNLVSDFVDTFRPTARINSICGRCSLLPVVNNSGAICNSWKLDPATLRFPLKGLLPYDKDLFEPQTALLRYVLEQPYSRDMVCNMLGLNKQHKQRCPVLEDQLVDLVVYAMERSETEEKFDDGGTSQLLWQHLSSQLIFFVLFQFASFPHMVLSLHQKLAGRGLIKGRDHLMWVLLQFISGSIQKNALADFLPVMKLFDLLYPEKEYIPVPDINKPQSTHAFAMTCIWIHLNRKAQNDNSKLQIPIPHSLRLHHEFLQQSLRNKSLQMNDYKIALLCNAYSTNSECFTLPMGALVETIYGNGIMRIPLPGTNCMASGSITPLPMNLLDSLTVHAKMSLIHSIATRVIKLAHAKSSVALAPALVETYSRLLVYMEIESLGIKGFISQLLPTVFKSHAWGILHTLLEMFSYRMHHIQPHYRVQLLSHLHTLAAVAQTNQNQLHLCVESTALRLITALGSSEVQPQFTRFLSDPKTVLSAESEELNRALILTLARATHVTDFFTGSDSIQGTWCKDILQTIMSFTPHNWASHTLSCFPGPLQAFFKQNNVPQESRFNLKKNVEEEYRKWKSMSNENDIITHFSMQGSPPLFLCLLWKMLLETDHINQIGYRVLERIGARALVAHVRTFADFLVYEFSTSAGGQQLNKCIEILNDMVWKYNIVTLDRLILCLAMRSHEGNEAQVCYFIIQLLLLKPNDFRNRVSDFVKENSPEHWLQNDWHTKHMNYHKKYPEKLYFEGLAEQVDPPVQIQSPYLPIYFGNVCLRFLPVFDIVIHRFLELLPVSKSLETLLDHLGGLYKFHDRPVTYLYNTLHYYEMHLRDRAFLKRKLVHAIIGSLKDNRPQGWCLSDTYLKCAMNAREENPWVPDDTYYCRLIGRLVDTMAGKSPGPFPNCDWRFNEFPNPAAHALHVTCVELMALAVSGKEVGNALLNVVLKSQPLVPRENITAWMNAIGLIITALPEPYWIVLHDRIVSVISSPSLTSETEWVGYPFRLFDFTACHQSYSEMSCSYTLALAHAVWHHSSIGQLSLIPKFLTEVLLPIVKTEFQLLYVYHLVGPFLQRFQQERTRCMIEIGVAFYDMLLNVDQCSTHLNYMDPICDFLYHMKYMFTGDSVKEQVEKIICNLKPALKLRLRFITHISKMEPAAVPPQAMNSGSPAPQSNQVPVSLPVTQ
binding [6]: binds

Results, then the molecule that gave them:

binding [3]: binds
binding [4]: binds
binding [5]: binds
binding [6]: binds
B1: TFCP2 (endogenous) (protein, UniProt Q12800 1-502)
chain: MAWALKLPLADEVIESGLVQDFDASLSGIGQELGAGAYSMSDVLALPIFKQEESSLPPDNENKILPFQYVLCAATSPAVKLHDETLTYLNQGQSYEIRMLDNRKLGELPEINGKLVKSIFRVVFHDRRLQYTEHQQLEGWRWNRPGDRILDIDIPMSVGIIDPRANPTQLNTVEFLWDPAKRTSVFIQVHCISTEFTMRKHGGEKGVPFRVQIDTFKENENGEYTEHLHSASCQIKVFKPKGADRKQKTDREKMEKRTPHEKEKYQPSYETTILTECSPWPEITYVNNSPSPGFNSSHSSFSLGEGNGSPNHQPEPPPPVTDNLLPTTTPQEAQQWLHRNRFSTFTRLFTNFSGADLLKLTRDDVIQICGPADGIRLFNALKGRMVRPRLTIYVCQESLQLREQQQQQQQQQQKHEDGDSNGTFFVYHAIYLEELTAVELTEKIAQLFSISPCQISQIYKQGPTGIHVLISDEMIQNFQEEACFILDTMKAETNDSYHIILK

binding [3]: binds
binding [6]: binds
B3: UBP1 (endogenous) (protein, UniProt Q9NZI7 1-540)
chain: T3 sequence
